Reference: PubChem BioAssay AID504764 (Drosophila RNAi Screening Center, 2011)
Screen: 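Genome-wide screen for regulators of Notch-driven gene expression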 (primary screen). System: Drosophila Kc167 cells. Reagents: long dsRNA against Drosophila genes. Time to read-out: about 5 days (4 days dsRNA, then 24 h after transfection). Conditions: transfection of constitutively active membrane-tethered Notch lacking the extracellular domain, read 24 h later. Detection: 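Light from a Notch-responsive E(spl)m3 luciferase reporter under active Notch, with control-promoter and no-Notch reporter wells to normalise; raw counts from paired wells a and b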. Reading the numbers: induced reporter light, run 1, well a and induced reporter light, run 1, well b: higher = more light from the Notch target reporter with active Notch; control promoter light, run 1, well a and control promoter light, run 1, well b: higher = more light from the viral control promoter (cell number, transfection, viability); uninduced reporter light, run 1, well a: higher = more light from the Notch target reporter without active Notch. Active means: 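Wells with low control signal or poorly matching duplicates excluded; duplicates averaged; per source plate, z beyond ±2 for induced/control log2 ratio or beyond ±1.8 for induced/uninduced marks a hit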. Calls: active = modifier hit (raised or lowered Notch signal); inactive = not a hit.
The deposit covers about 22,000 reagents; below is a random part of those with a known target gene and a result. Of all reagents, 403 (1.9%) got an active call. 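Unnormalised raw counts per well; ratio z-scores behind the hit calls and whether each hit raises or lowers signal are not deposited.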 A number with no mark means an inactive call. The numbers tell different reagents against one gene apart. Not stated in the record: the amount of reagent.

gene knocked down	reagent	induced reporter light, run 1, well a	induced reporter light, run 1, well b	control promoter light, run 1, well a	control promoter light, run 1, well b	uninduced reporter light, run 1, well a
CG34289	1	1.52e5	2.12e5	1.58e5	1.90e5	13305
UQCR-Q	1	1.82e5	1.59e5	2.04e5	1.85e5	6340
CG4294	1	1.95e5	1.45e5	1.15e5	1.06e5	10045
p38b	1	1.50e5	1.50e5	1.39e5	1.76e5	10350
CG33288	1	2.37e5	1.71e5	2.27e5	2.47e5	13705
msi	1	69880	66315	43925	45795	5440
CG32651	1	88720	91580	93685	66980	5570
Rab10	1	99685	1.05e5	1.22e5	1.49e5	13865
CG31787	1	77355	67445	86445	63825	6815
Cp7Fc	1	1.70e5	1.40e5	2.15e5	2.05e5	11490
CG14020	1	1.75e5	1.65e5	1.73e5	1.70e5	11235
Pex14	1	1.40e5	1.02e5	1.00e5	1.11e5	8390
CG34242	1	2.21e5	2.24e5	1.85e5	2.17e5	13890
CG15642	1	56445	60535	70685	53635	8350
TotF	1	62505	49780	70855	51900	3700
msl-1	1	58100	53520	89480	1.06e5	5460
CG14177 (retired record)	1	1.75e5	1.24e5	2.36e5	2.15e5	8850
Gfat2	1	1.62e5	1.51e5	2.12e5	2.09e5	13000
CG14130	1	1.65e5	1.45e5	1.96e5	1.83e5	6150
Sirt7	1	1.90e5	2.06e5	2.84e5	2.96e5	14100
Sptz	1	69335	83570	67340	52770	5510
Nup153	1	64745	69585	56635	41710	6710
Pif2	1	66830	96130	70225	70220	6050
Ugt37A2	1	69890	52645	80090	61610	3965
CG4702	1	1.17e5	1.05e5	77855	1.02e5	10015
CG14377	1	2.66e5	2.42e5	2.08e5	2.02e5	18230
Ggamma30A	1	1.34e5	1.67e5	60495	1.07e5	18220
Ggamma30A	2	1.15e5	1.41e5	89660	95770	18738
Or59a	1	53110	43240	31835	34955	3680
PIG-O	1	60395	60405	96580	79850	4382
Dh44	1	1.48e5	1.19e5	1.94e5	2.26e5	10745
Dh44	2	94175	85920	73665	54515	4730
CG10214	1	1.55e5	1.86e5	2.36e5	2.42e5	13715
CG10553	1	1.56e5	1.32e5	2.03e5	2.13e5	13055

As entered above:
Entry of Ggamma30A #1 in “control promoter light, run 1, well a”: 60495
Nup153, induced reporter light, run 1, well b → 69585
msi, control promoter light, run 1, well a = 43925
